# Primary screen of a compound library

By UniProt entry, the sequences of proteins in these tests, tags left out.
UniProt E9BF75, entry or part of it: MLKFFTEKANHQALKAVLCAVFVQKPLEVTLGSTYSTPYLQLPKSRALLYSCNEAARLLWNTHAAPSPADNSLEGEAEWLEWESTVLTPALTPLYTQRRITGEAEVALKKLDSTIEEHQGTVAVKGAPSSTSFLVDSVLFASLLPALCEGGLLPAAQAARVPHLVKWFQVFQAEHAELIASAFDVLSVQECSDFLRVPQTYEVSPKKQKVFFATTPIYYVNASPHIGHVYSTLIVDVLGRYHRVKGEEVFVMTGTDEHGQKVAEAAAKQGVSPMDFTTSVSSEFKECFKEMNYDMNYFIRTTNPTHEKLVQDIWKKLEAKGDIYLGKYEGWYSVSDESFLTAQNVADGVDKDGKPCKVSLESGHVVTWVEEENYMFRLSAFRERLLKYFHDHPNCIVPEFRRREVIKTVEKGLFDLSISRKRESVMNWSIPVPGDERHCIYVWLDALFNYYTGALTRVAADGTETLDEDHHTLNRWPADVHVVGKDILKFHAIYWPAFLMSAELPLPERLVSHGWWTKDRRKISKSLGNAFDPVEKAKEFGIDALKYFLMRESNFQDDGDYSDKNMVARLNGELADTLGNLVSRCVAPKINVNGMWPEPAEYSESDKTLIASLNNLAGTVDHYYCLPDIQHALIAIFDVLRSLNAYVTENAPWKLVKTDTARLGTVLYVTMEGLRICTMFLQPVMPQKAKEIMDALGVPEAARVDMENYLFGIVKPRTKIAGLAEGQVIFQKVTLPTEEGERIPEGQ

Measurements from “University of Dundee, Small-Polar-MMV Screening Library” (2021), ChEMBL document CHEMBL3988442.

Results are percentages, as filed.
How 0% and 100% were set is not recorded. Most values in the screen are low, and negative values occur.
The compounds are a random part of those screened.

LdMetRS: 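Primary screen of methionyl-tRNA synthetase; the read-out is not stated. Target: Methionyl-tRNA synthetase (putative), Leishmania donovani (UniProt E9BF75). The test concentration is not given. The values are filed as inhibition. About 68,000 compounds were tested under these conditions; 0.035% (about 24) showed 50% or more at least once.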
Mtb heat-shock: 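Assay on Mycobacterium tuberculosis, filed only as a heat shock assay from Cornell; the read-out is not stated. The concentration is filed as 10 mM, unlikely as a test dose, so the dose is not known. The record gives no direction; compounds that gave an IC50 in retests scored well above the rest, so higher reads as stronger inhibition. About 69,000 compounds were tested under these conditions; 1.4% (about 930) showed 50% or more at least once.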

- NC(=O)CCN(CC(=O)NCc1ccccn1)c1ccc(F)cc1 : LdMetRS: 15.97%; Mtb heat-shock: -4.474%
- Cc1ccc(C(CNCc2ncc[nH]2)N2CCOCC2)s1 (centres unmarked) : LdMetRS: 9.89%; Mtb heat-shock: -0.7996%
- Cc1ncsc1CN1CC[C@H]2OCC[C@@]2(C(=O)NCC2CC2)C1 : LdMetRS: 8.511%
- COCC(=O)N1CCC(c2cc(N(C)C)cc(C)n2)CC1 : LdMetRS: 2.532%; Mtb heat-shock: -2.309%
- CN1CCCN(CC(=O)N2CCc3[nH]c(-c4ccccc4)nc3C2)CC1 : LdMetRS: 21.88%; Mtb heat-shock: -11.05%
- Cn1nnc2cc(C(=O)N3CCCC3Cc3ccccc3)ccc21 (centres unmarked) : LdMetRS: 7.389%; Mtb heat-shock: 7.832%
- Cc1nc(CN(C)C2CCN(Cc3ccc4ccccc4n3)C2)no1 (centres unmarked) : LdMetRS: 14.98%; Mtb heat-shock: 86.18%
- COC(=O)N1CCN2C[C@H](CO)[C@@H](c3ccccc3)[C@H]2C1 : LdMetRS: 11.78%
- O=C(O)C(F)(F)F.[H][C@@]12CCN(CC3CCOCC3)C[C@@]1([H])O[C@@H](C(=O)N1CCC(C)CC1)C2 : Mtb heat-shock: -9.065%
- O=C(c1ccc(S(=O)(=O)N2CCSCC2)cc1)N1CCCCCC1 : LdMetRS: 5.362%; Mtb heat-shock: -24.11%
- COc1ccc(C[C@H]2CN(Cc3ccoc3)CC[C@H]2OC)cc1.O=C(O)C(F)(F)F : Mtb heat-shock: 23.61%
- O=C(c1ccco1)N1CC[C@@H]2O[C@H](COCC3CCOCC3)CC[C@@H]21 : LdMetRS: 7.853%
- COCCNC(=O)C[C@@H]1COC[C@H]2CN(CC3CCOCC3)C[C@@H]12 : LdMetRS: -9.87%
- COc1ccccc1-n1cc(C(=O)NCCCn2nc(C)nc2C)cn1 : LdMetRS: 8.115%; Mtb heat-shock: -2.926%
- Cc1cc(C)n(CC2CN(c3cnc4ccccc4n3)CCO2)n1 (centres unmarked) : LdMetRS: 18.31%; Mtb heat-shock: -5.692%
- CCOc1cc(CNC(=O)NC2CC=CC2)ccc1OC(F)F : LdMetRS: 10.07%; Mtb heat-shock: 6.892%
- c1cc(CO[C@@H]2CC[C@H]3[C@H]2OCCN3CC2CCOCC2)ccn1 : LdMetRS: 7.071%
- CC(C)(CNC(=O)CSc1nnnn1C1CC1)c1ccccc1F : LdMetRS: 10.47%; Mtb heat-shock: -19.9%
- Cc1cc(CN(C)C(=O)c2ccc(OC(C)C)nc2)no1 : LdMetRS: 10.12%; Mtb heat-shock: -21.73%
- O=C(CCNC(=O)c1ccoc1)Nc1cccc(F)c1 : LdMetRS: 9.278%; Mtb heat-shock: 20.12%
- Cn1nc(COCC2CC2)c2c1CCN(Cc1ccco1)C2 : LdMetRS: 10%
- CCn1cnnc1CNC(=O)N1CCOC(c2ccc(Cl)cc2)C1 (centres unmarked) : LdMetRS: 18.43%; Mtb heat-shock: -225.7%
- CC(C)CSCCN1CCN(S(C)(=O)=O)CC1 : LdMetRS: 19.77%; Mtb heat-shock: 1.228%
- O=C(O)C(F)(F)F.O=C(O)C(F)(F)F.O=C(O)C(F)(F)F.[H][C@@]12C[C@@H](Oc3cncnc3)CN1CCN(Cc1cccnc1)C2 : Mtb heat-shock: 19.48%
- CCc1c(C)nc2n(c1=O)CC(C(=O)Nc1sccc1C(=O)OC)CS2 (centres unmarked) : LdMetRS: 11.26%; Mtb heat-shock: 15.72%

Once more, the final 2:

O=C(O)C(F)(F)F.O=C(O)C(F)(F)F.O=C(O)C(F)(F)F.[H][C@@]12C[C@@H](Oc3cncnc3)CN1CCN(Cc1cccnc1)C2 gave Mtb heat-shock: 19.48%.
CCc1c(C)nc2n(c1=O)CC(C(=O)Nc1sccc1C(=O)OC)CS2 (centres unmarked) gave LdMetRS: 11.26%; Mtb heat-shock: 15.72%.